Results published in patent US20260008808 (published 2026).
* marks the point of attachment. Cbz = O=C(OCc1ccccc1)*; OtBu = CC(C)(C)O*

Test: general procedure: solution-phase peptide synthesis; N-methyl-N-p-toluenesulfonyl ethynylamine

Cbz-AFME(OtBu)-OH
step yield (coupling step): 92%

carfilzomib
isolated yield (whole synthesis, overall, scale of the general procedure 0.5 mmol): 70%
